Experimental data reported in patent publication US11180760B2, “Identification of molecular pathways and methods of use thereof for treating retinal neurodegeneration and other neurodegenerative disorders” (THE JOHNS HOPKINS UNIVERSITY, priority 2012, dated 2021).
At least one structure is not confirmed: it was looked up by name or label, or the drawing left a doubt.

Key:
[1] = system: RGC; assay: Mouse optic nerve crush after intravitreal drug-eluting microspheres, RGC survival by Nissl staining; format: in vivo, C57Bl/6 mice
[2] = system: primary RGCs; assay: Primary RGC survival in neurotrophin-depleted media with kinase inhibitors (calcein AM); settings: at higher doses (FIG. 1B)

CCN(CC)CCNC(=O)c1c(C)[nH]c(/C=C2\C(=O)Nc3ccc(F)cc32)c1C [sunitinib]
Nissl-stained sections of the GCL, survival ([1]; 0.5 mg/mL sustained-release sunitinib (FIG. 1D)): survival benefit | RGC survival two weeks after optic nerve crush ([1]; intravitreal 1 μL drug-eluting microspheres 0.125, 0.25 or 0.5 mg/mL sunitinib, crush one week later, Nissl staining of GCL, vs vehicle (FIG. 1C)): protected the ganglion cells | survival of primary RGCs at higher doses [2]: more cell death
